According to paper PMC12313710, “Targeting the BAG2/CHIP axis promotes gastric cancer apoptosis by blocking apoptosome assembly” (Frontiers in Immunology, 2025):
These are yes or no findings as the source states them, for the method shown. In cells and extracts the contact can be indirect. Some entries that bind do so weakly or less than the wild type. For some assays here: Tags and fused reporters may be left off the sequences shown.

What was measured:
Conditions in all cases: remark: other sources report otherwise
[1] = biological target: T1, c-terminus of HSP70-interacting protein (CHIP), Flag- or HA-tagged, Q9UNE7; assay: co-IP; Flag- and HA-tagged proteins co-expressed in HEK-293T; lysis in 50 mM Tris-HCl pH 7.4, 150 mM NaCl, 1 mM EDTA, 0.2% Triton X-100; anti-Flag M2 agarose, 2 h, 4°C; blots for HA and FLAG
T1 chain: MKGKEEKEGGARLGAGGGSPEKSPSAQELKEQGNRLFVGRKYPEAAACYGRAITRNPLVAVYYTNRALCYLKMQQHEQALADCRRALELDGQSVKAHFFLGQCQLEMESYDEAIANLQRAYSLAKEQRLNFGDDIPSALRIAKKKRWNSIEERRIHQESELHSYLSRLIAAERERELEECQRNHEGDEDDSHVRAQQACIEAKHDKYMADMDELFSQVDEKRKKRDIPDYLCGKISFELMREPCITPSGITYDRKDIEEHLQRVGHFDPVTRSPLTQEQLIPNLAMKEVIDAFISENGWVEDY

[2] = biological target: T1, c-terminus of HSP70-interacting protein …; assay: co-IP; BAG2 and CHIP, wild type, deletion mutants and CHIP 91–96 / 131–135 mutants (Figure 5A, B, E); cell line not stated
[3] = biological target: T2, CHIP in HGC-27 cells, Q9UNE7; assay: co-IP; BAG2-CHIP in HGC-27 cells treated with FIIN-2 at the indicated concentrations
T2 chain: T1 chain

[4] = biological target: T3, CHIP (immunoprecipitation of Supplementary Figure 3), Q9UNE7; assay: co-IP; immunoprecipitation of Supplementary Figure 3; cells and constructs not told
T3 chain: T1 chain

HA-tagged CHIP, Q9UNE7 = biological target: T4, HA-tagged CHIP, Q9UNE7; assay: co-IP; HA-tagged CHIP and FLAG-tagged HSP70 in HEK-293 cells transfected with No-tagged BAG2 (concentration-dependent)
T4 chain: T1 chain

B1: BCL2-associated athanogene 2 (BAG2), Flag- or HA-tagged, O95816 1-211 (protein)
chain: MAQAKINAKANEGRFCRSSSMADRSSRLLESLDQLELRVEALREAATAVEQEKEILLEMIHSIQNSQDMRQISDGEREELNLTANRLMGRTLTVEVSVETIRNPQQQESLKHATRIIDEVVNKFLDDLGNAKSHLMSLYSACSSEVPHGPVDQKFQSIVIGCALEDQKKIKRRLETLLRNIENSDKAIKLLEHSKGAGSKTLQQNAESRFN
B1 was tested, and the binding [1] was “binds” and the binding [2] was “binds”.

B2: BAG2 in HGC-27 cells, O95816 1-211 (protein)
chain: B1 chain
With B2 the binding [3] was “binds”.

B3: BAG2 (immunoprecipitation of Supplementary Figure 3), O95816 1-211 (protein)
chain: B1 chain
With B3 the binding [4] was “binds”.

B4: No-tagged BAG2, O95816 1-211 (protein)
chain: B1 chain
With B4 the binding (HA-tagged CHIP, Q9UNE7) was “binds”.
